Laboratory results taken from PubChem BioAssay AID504648 (National Center for Advancing Translational Sciences (NCATS), 2011).
The campaign covered roughly 390,000 compounds. About 610 (0.16%) were called active. Inconclusive results, whose numbers are uncertain, are shown with a selection of clear calls. The call rests on the fitted dose curve; in most records, active means well fitted inhibition curve with a large enough effect; inconclusive means small, poorly fitted or top-dose-only effect, or effect the other way, or another doubt; inactive means no such curve, though single readings can be large or run the other way. Potencies beside an inconclusive call are fits to weak or partial responses and may not hold up.

assay: Nrf2 qHTS screen for inhibitors: counterscreen for cytotoxicity; settings: A549 ARE-Fluc cells, CellTiter-Fluor viability, 18-24 h; activity change, negative = cytotoxicity: at 46 µM (top of the series)
Summary of the method: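 A549 ARE_Fluc cells in 5% FBS OPTI-MEM were exposed to compounds in concentration-response for 18-24 h at 37 deg C. Viability was read by CellTiter-Fluor fluorescence (Ex 405/Em 525) after 30 min, before the luciferase read.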
On the % scale 0 is the no-effect control and ±100 the full control effect; potency means the concentration at half of the fitted maximal effect.

Question: With `Cc1ccc(-c2nnc(Nc3ccc(Cl)c(Cl)c3)c3ccccc23)cc1S(=O)(=O)NCCO` as the molecule, how does the “activity change, negative = cytotoxicity” value read?
Answer: inactive: -7.3%

Question: Which “activity change, negative = cytotoxicity” value does the source give for `Cc1cc(NS(=O)(=O)c2ccc(NC(=O)c3cc(-c4cccnc4)nc4ccc(Cl)cc34)cc2)no1` here?
Answer: inactive: -3.39%

Question: With `CC(=O)Nc1cccc(S(=O)(=O)N2CCCCCC2)c1` as the molecule, how does the “activity change, negative = cytotoxicity” value read?
Answer: inactive: -1.98%

Question: With `Cc1ccc(N2NC(=O)/C(=C/c3ccc(-c4ccc(Cl)c(C(=O)O)c4)o3)C2=O)cc1` as the molecule, how does the “activity change, negative = cytotoxicity” value read?
Answer: inactive: 0.26%

Question: Which Potency does the source give for `Cc1c(O)c(CN2CCCC2)cc2c3c(c(=O)oc12)CCC3` here?
Answer: inconclusive: 20.6 µM [activator, single point]

Question: Which Potency does the source give for `Cc1ccc(/C=N/NC(=O)C2=NNC(c3ccccc3)(c3ccccc3)C2)c(O)c1` here?
Answer: inconclusive: 18.4 µM [falling, single point]

Question: For `CC1CC(C)CN(S(=O)(=O)N2CCC(C(=O)NCCC3=CCCCC3)CC2)C1` (stereo unspecified), which Potency is on record?
Answer: inconclusive: 4.61 µM [falling, partial curve, poor fit]

Question: Which Potency does the source give for `O=C(NCCOc1ccc(F)cc1)c1ccccc1SCc1ccccc1` here?
Answer: inconclusive: 32.6 µM [falling, single point]

Question: Which Potency does the source give for `O=C(Cn1c(=O)nc(-c2ccccc2)c2ccccc21)NCc1ccc(F)cc1` here?
Answer: inconclusive: 23.1 µM [falling, partial curve, poor fit]

Question: Which Potency does the source give for `CCc1ccc(CCC(=O)Nc2ccc(Cl)cc2)o1` here?
Answer: inconclusive: 0.082 µM [activator, full curve, poor fit]

Question: For `O=[N+]([O-])c1ccc(O)c(/C=N/Nc2ccc(Cl)nn2)c1`, which Potency is on record?
Answer: inconclusive: 3.66 µM [falling, full curve]

Question: With `CCOC(=O)c1ccc(Nc2nc(-c3cccnc3)nc3ccccc23)cc1` as the molecule, how does the Potency read?
Answer: inconclusive: 32.6 µM [falling, partial curve, poor fit]

Question: For `O=C(CCSc1ccc(Cl)cc1)N1CCN(S(=O)(=O)c2ccccc2)CC1`, which “activity change, negative = cytotoxicity” value is on record?
Answer: inactive: 0.366%

Question: Which Potency does the source give for `NN=C1c2ccccc2C(=O)C1C(=O)C(c1ccccc1)c1ccccc1` (stereo unspecified) here?
Answer: inconclusive: 16.4 µM [falling, single point]

Question: With `COc1ccc(Cn2cccc(NC(=O)Nc3cccc(OC)c3)c2=O)cc1` as the molecule, how does the Potency read?
Answer: inconclusive: 13 µM [falling, single point]

Question: Which Potency does the source give for `COc1ccc(Br)cc1CN(C)CC(=O)Nc1c(Cl)ccc(C)c1Cl` here?
Answer: inconclusive: 29.1 µM [falling, single point]

Question: With `CCCNC(=O)c1ccccc1NC(=O)c1ccccc1N(C)S(=O)(=O)c1ccc(C)cc1` as the molecule, how does the Potency read?
Answer: inconclusive: 32.6 µM [falling, partial curve, poor fit]

Question: With `S=c1[nH]nc(-c2cc3c(s2)-c2ccccc2CC3)o1` as the molecule, how does the Potency read?
Answer: inconclusive: 29.1 µM [activator, single point]

Question: For `CCN(CC)c1ccc(/C=C2\NC(=O)NC2=O)cc1`, which Potency is on record?
Answer: inconclusive: 29.1 µM [falling, partial curve, poor fit]

Question: For `CCNC(=O)n1cc(-n2cncn2)c(-c2ccc(Cl)cc2)n1`, which “activity change, negative = cytotoxicity” value is on record?
Answer: inactive: 1.83%

Question: Which Potency does the source give for `CN(C)CCNc1ncnc2c1sc1nc(N3CCOCC3)c3c(c12)CC(C)(C)SC3` here?
Answer: inconclusive: 11.6 µM [falling, partial curve]

Question: With `Cc1nc(NCc2ccco2)c2cn[nH]c2n1` as the molecule, how does the “activity change, negative = cytotoxicity” value read?
Answer: inactive: -8.22%

Question: With `CC(C)=CCC/C(C)=C/CNC(=O)C[C@H]1C[C@H](C(=O)N(C(C)C)C(C)C)[C@@]2(C)c3[nH]c4cc(-c5ccco5)ccc4c3CCN2C1=O` as the molecule, how does the Potency read?
Answer: inconclusive: 20.6 µM [falling, single point]

Question: Which Potency does the source give for `COc1ccccc1Nc1nn2c(=O)c3ccc(C(=O)NCc4ccc(F)cc4)cc3nc2s1` here?
Answer: inconclusive: 6.51 µM [falling, single point]

Question: With `O=C(NCc1ccccn1)c1cc(-c2ccc(Cl)cc2)nc2ccccc12` as the molecule, how does the Potency read?
Answer: inconclusive: 29.1 µM [falling, single point]

Question: Which “activity change, negative = cytotoxicity” value does the source give for `CCOc1ccc(NC(=O)C2CCN(S(=O)(=O)c3ccc4c(c3)NC(=O)C(C)S4)CC2)cc1` (stereo unspecified) here?
Answer: inactive: -13.6%

Question: Which “activity change, negative = cytotoxicity” value does the source give for `O=C(Cc1c(O)c2ccccc2[nH]c1=O)NCc1cccc(F)c1` here?
Answer: inactive: 11.8%

Question: For `Cc1cc(OCC(=O)Nc2ccc(Br)cc2)cc2c1C(=O)CC(C)(C)O2`, which “activity change, negative = cytotoxicity” value is on record?
Answer: inactive: 2.88%

Question: For `CC(C)(C)c1nc(SCC(=O)NNC(=O)c2ccccc2)c2ccccc2n1`, which Potency is on record?
Answer: inconclusive: 29.1 µM [falling, partial curve, poor fit]

Question: For `Cc1ccc(CNCc2ccc3c(c2)OCO3)c(C)c1`, which Potency is on record?
Answer: inconclusive: 23.1 µM [activator, partial curve, poor fit]

Question: Which Potency does the source give for `CCC(=O)Oc1c(S(=O)(=O)c2ccc(C)cc2)c(C)nn1C(C)(C)C` here?
Answer: inconclusive: 10.3 µM [falling, partial curve, poor fit]

Question: With `O=[N+]([O-])c1cc(C(F)(F)F)ccc1NCCNC(=S)Nc1ccc(Cl)cc1` as the molecule, how does the Potency read?
Answer: inconclusive: 29.1 µM [falling, single point]

Question: For `COc1ccc(C2NCCc3c2[nH]c2ccccc32)cc1CN1CCc2cc(OC)c(OC)cc2C1C` (stereo unspecified), which Potency is on record?
Answer: inconclusive: 20.6 µM [falling, partial curve, poor fit]

Question: For `Cc1cc(/C=C(\C#N)C(=O)NCc2cccs2)c(C)n1-c1ccc([N+](=O)[O-])cc1`, which Potency is on record?
Answer: inconclusive: 29.1 µM [falling, single point]

Question: Which Potency does the source give for `C=CCn1c(SCCCc2ccccc2)nc2c1c(=O)[nH]c(=O)n2C` here?
Answer: inconclusive: 13 µM [activator, partial curve]

Question: Which Potency does the source give for `CCC(C)Nc1nc(-c2ccccn2)nc2ccccc12` (stereo unspecified) here?
Answer: inconclusive: 32.6 µM [falling, partial curve, poor fit]

Question: With `CCOC(=O)c1c(NC(=S)NC(=O)c2ccc(Cn3cc(Cl)cn3)o2)sc2c1CCCCC2` as the molecule, how does the Potency read?
Answer: inconclusive: 18.4 µM [falling, single point]

Question: With `CC[C@H](C)[C@H]1O[C@]2(CC[C@@H]1C)C[C@@H]1C[C@@H](CC=C(C)[C@@H](O[C@H]3C[C@H](OC)[C@@H](O[C@H]4C[C@H](OC)[C@@H](O)[C@H](C)O4)[C@H](C)O3)[C@@H](C)C=CC=C3CO[C@@H]4[C@H](O)C(C)=C[C@@H](C(=O)O1)[C@]34O)O2` as the molecule, how does the Potency read?
Answer: active: 23.1 µM

Question: With `O=C(NC1CCCCC1)Nn1c(-c2ccccc2)nc2ccccc2c1=O` as the molecule, how does the Potency read?
Answer: inconclusive: 5.17 µM [activator, partial curve, poor fit]

Question: Which Potency does the source give for `Cc1cc(=O)n2[nH]c(N)c(N=Nc3ccccc3F)c2n1` here?
Answer: inconclusive: 32.6 µM [falling, partial curve, poor fit]

Question: For `CCn1c(=O)c(CCC(=O)NCCN2CCOCC2)c(C)c2c(C)nn(-c3ccccc3)c21`, which “activity change, negative = cytotoxicity” value is on record?
Answer: inactive: 0.955%

Question: For `COCCN(C(=O)CCC(=O)Nc1cccnc1)C(C(=O)NC1CCCCC1)c1ccccc1` (stereo unspecified), which “activity change, negative = cytotoxicity” value is on record?
Answer: inactive: 8.44%

Question: With `CC(C)(C)C(=O)/C(=C/c1ccncc1)n1cncn1` as the molecule, how does the Potency read?
Answer: inconclusive: 18.4 µM [falling, single point]

Question: For `Cc1ccc(NC2=C/C(=N/S(=O)(=O)c3cccs3)c3ccccc3C2=O)cc1`, which Potency is on record?
Answer: inconclusive: 20.6 µM [falling, single point]

Question: For `O=C(OCC12CC3CC(CC(C3)C1)C2)c1ccc(NCc2cc(O)ccc2O)cc1`, which Potency is on record?
Answer: inconclusive: 16.4 µM [falling, single point]

Question: With `O=C(CC(NC(=O)c1ccccc1Cl)c1ccccc1)NC1=NCCS1` (stereo unspecified) as the molecule, how does the Potency read?
Answer: inconclusive: 23.1 µM [falling, partial curve, poor fit]

Question: For `COc1ccccc1C(=O)OCC(=O)Nc1ccccc1OC(F)F`, which Potency is on record?
Answer: inconclusive: 0.13 µM [activator, full curve, poor fit]

Question: With `Cc1cc(C)n2c(Nc3ccc(C(C)C)cc3)c(-c3ccsc3)nc2n1` as the molecule, how does the Potency read?
Answer: inconclusive: 29.1 µM [falling, single point]

Question: Which Potency does the source give for `COc1cc(C(=O)O/N=C(\N)Cc2ccc([N+](=O)[O-])cc2)cc(OC)c1OC` here?
Answer: inconclusive: 23.1 µM [falling, partial curve, poor fit]

Question: With `CCCN1CCc2c(sc(NC(=O)c3ccc(S(=O)(=O)N(C)c4ccccc4)cc3)c2C(=O)NC)C1` as the molecule, how does the Potency read?
Answer: inconclusive: 20.6 µM [falling, partial curve, poor fit]

Question: For `CC(C)c1nnc(NC(=O)C2CCCN2C(=O)Nc2cccc(Cl)c2)s1` (stereo unspecified), which Potency is on record?
Answer: inconclusive: 4.61 µM [falling, full curve, poor fit]

Question: For `COCCNC(=S)N/N=C(\C)c1ccc2cc(OC)ccc2c1`, which Potency is on record?
Answer: inconclusive: 29.1 µM [activator, partial curve, poor fit]

Question: Which “activity change, negative = cytotoxicity” value does the source give for `CC(C)c1ccc2[nH]c(O)c(N=NC(=O)c3cccc(S(=O)(=O)Nc4ccccc4Cl)c3)c2c1` here?
Answer: inactive: -0.169%

Question: With `O=C(CCN1CCN2CCCC2C1)N1c2ccccc2Sc2ccc(Cl)cc21` (stereo unspecified) as the molecule, how does the Potency read?
Answer: inconclusive: 18.4 µM [falling, partial curve, poor fit]

Question: Which Potency does the source give for `Cc1ccc2nc(/C(C#N)=C\c3cc(C)n(-c4cccc([N+](=O)[O-])c4)c3C)[nH]c2c1` here?
Answer: inconclusive: 13 µM [falling, partial curve, poor fit]

Question: Which Potency does the source give for `CCOC(=O)c1cc2c(ccn2-c2ccc(F)cc2)n1CC(=O)N(CC)CC` here?
Answer: inconclusive: 32.6 µM [falling, single point]

Question: With `CCN1CCN(S(=O)(=O)c2ccc(C(=O)Nc3sc4c(c3C(N)=O)CCN(CC)C4)cc2)CC1` as the molecule, how does the Potency read?
Answer: inconclusive: 18.4 µM [falling, single point]

Question: For `Cc1ccc(C(=O)C(C)OC(=O)CCS(=O)(=O)c2ccc(C)cc2)cc1` (stereo unspecified), which “activity change, negative = cytotoxicity” value is on record?
Answer: inactive: -1.92%

Question: Which Potency does the source give for `O=C(NCc1cccnc1)NC1(C(F)(F)F)Oc2ccccc2O1` here?
Answer: inconclusive: 8.2 µM [falling, partial curve, poor fit]

Question: For `Cc1ccc(NC(=O)Cn2cnc([N+](=O)[O-])c2)cc1C`, which activity change, negative = cytotoxicity is on record?
Answer: inconclusive: -33.3% [activator]

Question: For `CC12CCC(=O)N1C(C(=O)Nc1nnc(SCc3ccccc3)s1)CS2` (stereo unspecified), which Potency is on record?
Answer: inconclusive: 20.6 µM [falling, single point]
